Data from PubChem BioAssay AID248 (DTP/NCI, 2004).
The list does not hold the whole screen: it covers a few groups of compounds. Not every dose and run of a compound is shown. T/C is the treated group as % of the vehicle group. Some entries give survivors of the animals treated and no T/C: the source files T/C as zero there, which appears to mark a toxic dose or a test without result, not a measured value. Survivors were counted at the toxicity check, usually on the fifth day, unless a day is given; later deaths do not show. Schedules are NCI's codes, read here as Q, the interval in days (D) or hours (H), X, the number of doses. Where survival is the endpoint, the PubChem record calls one and a half times the control and up active, and a quarter to a half above the control has no call in these data; cut-offs in other NCI protocols can differ. Some T/C values carry the count of animals alive at the toxicity check (mostly the fifth day); where neither a count nor a note follows, no animal had died by that day. Some entries were tested several times; their values stand side by side, smallest first. Some schedule codes hold Z or #, which are not explained here.

Test system: L1210 leukemia ip in BDF1 mice, survival T/C
Assay: NCI In Vivo Anticancer Drug Screen. Data for tumor model L1210 Leukemia (intraperitoneal) in B6D2F1 (BDF1) mice
Details: T/C endpoint: mean survival time, higher T/C = longer survival
[1] = dose: 400.0 mg/kg/injection, schedule: Q01DX001 (ip), vehicle: water
[2] = dose: 400.0 mg/kg/injection, schedule: Q01DX001 (iv), vehicle: water

**Q.** How did the T/C (dose: 300.0 mg/kg/injection, schedule: Q04DX005 (oral), vehicle: steroid suspending solution) turn out when `NC(=O)c1[nH]cnc1/N=N\N(CCCl)CCCl` was run?
**A.** The T/C was 100 % of control.

**Q.** What about the T/C (dose: 300.0 mg/kg/injection, schedule: Q04DX Z (ip), vehicle: carboxymethylcellulose (CMC)) of the same compound?
**A.** The T/C was 240 and 310 % of control.

**Q.** And the T/C (dose: 300.0 mg/kg/injection, schedule: Q04DX Z (sc), vehicle: carboxymethylcellulose (CMC))?
**A.** The T/C was 316 % of control.

**Q.** What about the T/C (dose: 300.0 mg/kg/injection, schedule: Q06HX012 (oral), vehicle: steroid suspending solution) of the same compound?
**A.** The T/C was 190 % of control.

**Q.** And the T/C (dose: 300.0 mg/kg/injection, schedule: Q06HX020 (oral), vehicle: steroid suspending solution)?
**A.** Its T/C is 101 % of control.

**Q.** And the T/C (dose: 300.0 mg/kg/injection, schedule: Q08DX002 (ip), vehicle: carboxymethylcellulose (CMC))?
**A.** The T/C was 287 and 304 % of control.

**Q.** And the T/C (dose: 300.0 mg/kg/injection, schedule: Q08DX003 (ip), vehicle: carboxymethylcellulose (CMC))?
**A.** Its T/C is 600 % of control.

**Q.** And the T/C (dose: 300.0 mg/kg/injection, schedule: Q08DX003 (oral), vehicle: carboxymethylcellulose (CMC))?
**A.** The T/C was 147 % of control.

**Q.** And the T/C (dose: 300.0 mg/kg/injection, schedule: Q08DX003 (oral), vehicle: steroid suspending solution)?
**A.** Its T/C is 93 % of control.

**Q.** And the T/C (dose: 300.0 mg/kg/injection, schedule: Q08DX Z (ip), vehicle: carboxymethylcellulose (CMC))?
**A.** The T/C was 198 and 435 % of control.

**Q.** What about the T/C (dose: 300.0 mg/kg/injection, schedule: Q## X001 (ip), vehicle: carboxymethylcellulose (CMC)) of the same compound?
**A.** Its T/C is 374 % of control.

**Q.** What about the T/C (dose: 300.0 mg/kg/injection, schedule: Q## X009 (oral), vehicle: carboxymethylcellulose (CMC)) of the same compound?
**A.** Its T/C is 200 % of control.

**Q.** What about the T/C (dose: 336.0 mg/kg/injection, schedule: Q03DX Z (ip), vehicle: carboxymethylcellulose (CMC)) of the same compound?
**A.** The T/C was 177 % of control.

**Q.** And the T/C (dose: 350.0 mg/kg/injection, schedule: Q01DX001 (ip), vehicle: carboxymethylcellulose (CMC))?
**A.** Its T/C is 250, 259, 275, 281, 315, 611 % of control.

**Q.** What about the T/C (dose: 350.0 mg/kg/injection, schedule: Q04DX002 (ip), vehicle: carboxymethylcellulose (CMC)) of the same compound?
**A.** The T/C was 611 % of control.

**Q.** And the T/C (dose: 350.0 mg/kg/injection, schedule: Q04DX003 (ip), vehicle: carboxymethylcellulose (CMC))?
**A.** Its T/C is 233 % of control [9 of 10 alive].

**Q.** And the survivor count (dose: 350.0 mg/kg/injection, schedule: Q04DX004 (ip), vehicle: carboxymethylcellulose (CMC))?
**A.** Its survivor count is 0 of 10.

**Q.** What about the T/C (dose: 350.0 mg/kg/injection, schedule: Q04DX005 (ip), vehicle: carboxymethylcellulose (CMC)) of the same compound?
**A.** Its T/C is 227 % of control.

**Q.** And the T/C (dose: 350.0 mg/kg/injection, schedule: Q07DX Z (ip), vehicle: carboxymethylcellulose (CMC))?
**A.** Its T/C is 343 % of control.

**Q.** And the T/C (dose: 350.0 mg/kg/injection, schedule: Q## X001 (ip), vehicle: carboxymethylcellulose (CMC))?
**A.** Its T/C is 403 % of control.

**Q.** And the T/C (dose: 360.0 mg/kg/injection, schedule: Q01DX001 (ip), vehicle: other)?
**A.** Its T/C is 103 % of control.

**Q.** And the T/C (dose: 360.0 mg/kg/injection, schedule: Q01DX001 (ip), vehicle: steroid suspending solution)?
**A.** Its T/C is 116 % of control.

**Q.** What about the T/C (dose: 375.0 mg/kg/injection, schedule: Q01DX001 (ip), vehicle: carboxymethylcellulose (CMC)) of the same compound?
**A.** Its T/C is 244 % of control.

**Q.** And the T/C (dose: 378.0 mg/kg/injection, schedule: Q01DX Z (im), vehicle: carboxymethylcellulose (CMC))?
**A.** The T/C was 124 % of control.

**Q.** What about the T/C (dose: 378.0 mg/kg/injection, schedule: Q01DX Z (oral), vehicle: carboxymethylcellulose (CMC)) of the same compound?
**A.** The T/C was 154 % of control.

**Q.** What about the T/C (dose: 378.0 mg/kg/injection, schedule: Q01DX Z (sc), vehicle: carboxymethylcellulose (CMC)) of the same compound?
**A.** Its T/C is 134 % of control.

**Q.** What about the T/C (dose: 392.0 mg/kg/injection, schedule: Q01DX001 (ip), vehicle: steroid suspending solution) of the same compound?
**A.** The T/C was 558 % of control.

**Q.** What about the T/C (dose: 400.0 mg/kg/injection, schedule: Q01DX001 (ip), vehicle: carboxymethylcellulose (CMC)) of the same compound?
**A.** The T/C was 200, 281, 287, 335, 352, 395 % of control.

**Q.** And the T/C (dose: 400.0 mg/kg/injection, schedule: Q01DX001 (ip), vehicle: clinical formulation)?
**A.** Its T/C is 90 [4 of 6 alive] and 321 % of control.

**Q.** What about the T/C (dose: 400.0 mg/kg/injection, schedule: Q01DX001 (ip), vehicle: saline) of the same compound?
**A.** The T/C was 270 and 280 % of control.

**Q.** And the T/C (dose: 400.0 mg/kg/injection, schedule: Q01DX001 (ip), vehicle: steroid suspending solution, evaluated on day 6)?
**A.** The T/C was 375 % of control.

**Q.** What about the T/C (dose: 400.0 mg/kg/injection, schedule: Q01DX001 (ip), vehicle: steroid suspending solution, evaluated on day 28) of the same compound?
**A.** Its T/C is 145 % of control.

**Q.** What about the T/C (dose: 400.0 mg/kg/injection, schedule: Q01DX001 (ip), vehicle: steroid suspending solution, evaluated on day 60) of the same compound?
**A.** Its T/C is 302, 326, 372, 401, 559 % of control.

**Q.** What about the T/C [1] of the same compound?
**A.** The T/C was 230, 515, 624 % of control.

**Q.** What about the survivor count [1] of the same compound?
**A.** The survivor count was 2 of 6.

**Q.** What about the T/C [2] of the same compound?
**A.** The T/C was 475 and 616 % of control.

**Q.** What about the survivor count [2] of the same compound?
**A.** Its survivor count is 0 of 6.

**Q.** What about the T/C (dose: 400.0 mg/kg/injection, schedule: Q01DX001 (oral), vehicle: carboxymethylcellulose (CMC)) of the same compound?
**A.** The T/C was 201 % of control.

**Q.** And the T/C (dose: 400.0 mg/kg/injection, schedule: Q01DX005 (ip), vehicle: carboxymethylcellulose (CMC))?
**A.** The T/C was 129 and 173 % of control [9 of 10 alive].

**Q.** And the T/C (dose: 400.0 mg/kg/injection, schedule: Q01DX009 (oral), vehicle: carboxymethylcellulose (CMC))?
**A.** Its T/C is 98 % of control.

**Q.** And the T/C (dose: 400.0 mg/kg/injection, schedule: Q01DX Z (oral), vehicle: carboxymethylcellulose (CMC))?
**A.** The T/C was 94 % of control.

**Q.** What about the T/C (dose: 400.0 mg/kg/injection, schedule: Q03HX003 (ip), vehicle: carboxymethylcellulose (CMC)) of the same compound?
**A.** The T/C was 369 % of control.

**Q.** And the T/C (dose: 400.0 mg/kg/injection, schedule: Q04DX002 (ip), vehicle: water)?
**A.** The T/C was 207 and 258 % of control.

**Q.** What about the T/C (dose: 400.0 mg/kg/injection, schedule: Q04DX003 (ip), vehicle: carboxymethylcellulose (CMC)) of the same compound?
**A.** Its T/C is 373 % of control.

**Q.** And the T/C (dose: 400.0 mg/kg/injection, schedule: Q04DX003 (ip), vehicle: water)?
**A.** The T/C was 101 % of control.

**Q.** What about the T/C (dose: 400.0 mg/kg/injection, schedule: Q04DX003 (oral), vehicle: carboxymethylcellulose (CMC)) of the same compound?
**A.** Its T/C is 479 % of control.

**Q.** What about the T/C (dose: 400.0 mg/kg/injection, schedule: Q04DX005 (ip), vehicle: carboxymethylcellulose (CMC)) of the same compound?
**A.** Its T/C is 126, 218, 287 % of control.

**Q.** And the T/C (dose: 400.0 mg/kg/injection, schedule: Q04DX Z (oral), vehicle: carboxymethylcellulose (CMC))?
**A.** Its T/C is 127 % of control.

**Q.** And the T/C (dose: 400.0 mg/kg/injection, schedule: Q08DX002 (ip), vehicle: carboxymethylcellulose (CMC))?
**A.** The T/C was 403 % of control.

**Q.** And the T/C (dose: 400.0 mg/kg/injection, schedule: Q08DX002 (ip), vehicle: water)?
**A.** Its T/C is 105 % of control.

**Q.** And the T/C (dose: 400.0 mg/kg/injection, schedule: Q08DX002 (oral), vehicle: carboxymethylcellulose (CMC))?
**A.** Its T/C is 324 % of control.

**Q.** What about the T/C (dose: 400.0 mg/kg/injection, schedule: Q08DX003 (ip), vehicle: carboxymethylcellulose (CMC)) of the same compound?
**A.** Its T/C is 193 % of control.

**Q.** What about the T/C (dose: 400.0 mg/kg/injection, schedule: Q08DX Z (oral), vehicle: carboxymethylcellulose (CMC)) of the same compound?
**A.** Its T/C is 304 % of control.

**Q.** And the T/C (dose: 400.0 mg/kg/injection, schedule: Q## X001 (ip), vehicle: carboxymethylcellulose (CMC))?
**A.** The T/C was 420 % of control.

**Q.** What about the T/C (dose: 400.0 mg/kg/injection, schedule: Q## X003 (ip), vehicle: carboxymethylcellulose (CMC)) of the same compound?
**A.** Its T/C is 226 % of control.

**Q.** What about the T/C (dose: 415.0 mg/kg/injection, schedule: Q01DX001 (ip), vehicle: saline) of the same compound?
**A.** Its T/C is 123 % of control.

**Q.** What about the T/C (dose: 415.0 mg/kg/injection, schedule: Q01DX001 (ip), vehicle: steroid suspending solution) of the same compound?
**A.** The T/C was 160 % of control.

**Q.** And the T/C (dose: 450.0 mg/kg/injection, schedule: Q01DX001 (ip), vehicle: carboxymethylcellulose (CMC))?
**A.** Its T/C is 278, 344, 374 % of control.

**Q.** What about the T/C (dose: 450.0 mg/kg/injection, schedule: Q## X001 (ip), vehicle: carboxymethylcellulose (CMC)) of the same compound?
**A.** The T/C was 400 % of control.

**Q.** What about the T/C (dose: 500.0 mg/kg/injection, schedule: Q01DX001 (ip), vehicle: carboxymethylcellulose (CMC)) of the same compound?
**A.** Its T/C is 231, 255, 310, 322, 337, 365, 392, 605 % of control.

**Q.** What about the T/C (dose: 500.0 mg/kg/injection, schedule: Q04DX003 (ip), vehicle: carboxymethylcellulose (CMC)) of the same compound?
**A.** The T/C was 108 % of control.

**Q.** What about the T/C (dose: 500.0 mg/kg/injection, schedule: Q04DX005 (ip), vehicle: carboxymethylcellulose (CMC)) of the same compound?
**A.** Its T/C is 195 % of control.
